Results are given in words; binding and its absence hold for the method and conditions named. In cells and extracts the contact can be indirect. Where a sequence is shown, tags or fusion partners need not be part of it.
Target: MEK
Experiment: co-immunoprecipitation with anti-RAD51AP1 antibody from T47D cell lysate, immunoblot

binding: no binding
B1: RAD51AP1-DYRK4 fusion protein (E9-E2 variant) (protein)
chain: MVRPVRHKKPVNYSQFDHSDSDDDFVSATVPLNKKSRTAPKELKQDKPKPNLNNLRKEEIPVQEKTPKKRMALDDKLYQRDLEVALALSVKELPTVTTNVQNSQDKSIEKHGSSKIETMNKSPHISNCSVASDYLDLDKITVEDDVGGVQGKRKAASKAAAQQRKILLEGSDGDSANDTEPDFAPGEDSEDDSDFCESEDNDEDFSMRKSKVKEIKKKEVKVKSPVEKKEKKSKSKCNALVTSVDSAPAAVKSESQSLPKKVSLSSDTTRKPLEIRSPSAESKKPKWVPPGLKWMLKSQGNVI

Reference: US20230340607A1, “COMPOSITIONS AND METHODS FOR DETECTING GENE FUSIONS OF RAD51AP1 AND DYRK4 AND FOR DIAGNOSING AND TREATING CANCER” (UNIVERSITY OF PITTSBURGH-OF THE COMMONWEALTH SYSTEM OF …, priority 2020, published 2023)
